In US20040091907A1:
These are yes or no findings as the source states them, for the method shown. Binding seen in cells or lysates may run through a third protein. Some entries that bind do so weakly or less than the wild type. Tags and fused reporters may be left off the sequences shown.

Chains of the proteins cited; added tags and fusions are not shown. Lines headed by an entry give the natural chain unless they say otherwise; changes in a name come on top.
UniProt Q92974: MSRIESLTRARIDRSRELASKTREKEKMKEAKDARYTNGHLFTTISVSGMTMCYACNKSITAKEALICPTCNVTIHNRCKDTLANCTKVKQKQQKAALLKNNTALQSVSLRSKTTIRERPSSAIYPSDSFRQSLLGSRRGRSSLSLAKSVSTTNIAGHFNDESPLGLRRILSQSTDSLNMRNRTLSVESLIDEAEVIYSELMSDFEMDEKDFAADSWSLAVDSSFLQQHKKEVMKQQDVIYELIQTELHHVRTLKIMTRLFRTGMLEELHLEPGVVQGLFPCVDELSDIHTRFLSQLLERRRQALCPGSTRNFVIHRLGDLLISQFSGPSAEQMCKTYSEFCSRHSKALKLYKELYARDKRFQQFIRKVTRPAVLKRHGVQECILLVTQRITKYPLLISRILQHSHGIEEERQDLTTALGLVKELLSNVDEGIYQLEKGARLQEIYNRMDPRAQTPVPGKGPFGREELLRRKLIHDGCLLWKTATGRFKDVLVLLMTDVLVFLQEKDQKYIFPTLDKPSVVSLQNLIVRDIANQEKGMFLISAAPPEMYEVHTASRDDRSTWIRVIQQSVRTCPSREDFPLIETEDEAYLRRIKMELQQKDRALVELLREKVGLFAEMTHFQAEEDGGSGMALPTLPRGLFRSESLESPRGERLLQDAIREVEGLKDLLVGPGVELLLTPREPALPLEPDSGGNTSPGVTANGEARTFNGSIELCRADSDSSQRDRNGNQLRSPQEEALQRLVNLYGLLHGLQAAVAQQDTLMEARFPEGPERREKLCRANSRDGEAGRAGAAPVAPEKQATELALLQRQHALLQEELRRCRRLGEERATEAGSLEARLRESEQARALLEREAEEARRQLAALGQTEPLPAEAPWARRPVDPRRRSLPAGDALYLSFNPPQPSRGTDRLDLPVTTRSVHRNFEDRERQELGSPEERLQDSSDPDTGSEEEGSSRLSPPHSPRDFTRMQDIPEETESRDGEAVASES

Biological target: T1, GFP-GEF-H1 (human) (UniProt Q92974)
T1 sequence: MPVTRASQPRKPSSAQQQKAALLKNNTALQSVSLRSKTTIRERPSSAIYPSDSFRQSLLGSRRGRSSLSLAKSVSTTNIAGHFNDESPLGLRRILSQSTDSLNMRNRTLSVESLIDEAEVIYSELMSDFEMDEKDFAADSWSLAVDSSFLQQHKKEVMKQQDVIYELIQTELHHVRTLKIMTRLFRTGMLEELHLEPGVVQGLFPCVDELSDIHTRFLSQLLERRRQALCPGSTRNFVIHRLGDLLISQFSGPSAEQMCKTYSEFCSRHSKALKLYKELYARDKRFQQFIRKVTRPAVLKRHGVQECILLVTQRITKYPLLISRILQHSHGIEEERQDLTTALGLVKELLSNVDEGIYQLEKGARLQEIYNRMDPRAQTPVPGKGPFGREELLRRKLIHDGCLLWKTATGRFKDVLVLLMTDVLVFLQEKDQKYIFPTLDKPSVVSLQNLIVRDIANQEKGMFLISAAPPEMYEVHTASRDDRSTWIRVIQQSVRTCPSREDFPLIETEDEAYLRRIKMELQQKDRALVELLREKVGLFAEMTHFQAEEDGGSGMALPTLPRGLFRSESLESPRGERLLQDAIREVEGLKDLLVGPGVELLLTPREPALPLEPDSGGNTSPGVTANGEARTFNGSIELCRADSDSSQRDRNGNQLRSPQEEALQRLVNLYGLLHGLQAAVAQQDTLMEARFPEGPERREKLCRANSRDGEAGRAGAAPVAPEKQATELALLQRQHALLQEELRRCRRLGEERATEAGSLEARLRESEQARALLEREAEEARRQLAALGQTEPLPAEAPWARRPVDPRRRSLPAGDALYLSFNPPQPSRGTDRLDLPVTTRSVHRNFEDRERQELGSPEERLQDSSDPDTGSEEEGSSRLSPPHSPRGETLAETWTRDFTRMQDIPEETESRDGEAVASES
Experiment: biotinylated peptide on streptavidin beads, pull-down from 293T lysate, GEF-H1 immunoblot

binding: binds
B1: biotinylated PAK4 peptide consisting of amino acids 276-324 (peptide)
peptide: CTPAAPAVPAVPGPPGPRSPQREPQRVSHEQFRAALQLVVDPGDPRSYLDNF
modifications: biotinylated (position not given)
